The nature of assay [1]: wild-type E. coli growth inhibition versus h38 humanized strain – h38 mutant RFP, wild-type GFP, cherry-pick, dose response (AID 977622). Particulars: E. coli mixed culture, 24 h, total growth OD600 at 50 uM.
Assay [2] concerns E. coli h38 humanized mutant ribosome RFP fluorescence, mixed culture, 24 h. Described as above. Particulars: h38 mutant RFP at 50 uM.

Some of the results follow. These are further read-outs of the screen, such as a control signal, another cell line or another target. No call is given for them.

On to `C[C@@H](Nc1nc(-c2ccccc2)nc2c1oc1ccccc12)C(=O)O`, for which the activity change in assay [1] was -5.92%; in assay [2] it was -20.7%.
As for `COc1ccc(C2=NN(C(=O)c3cccnc3)C(c3ccccc3)C2)cc1` (centres undefined), the activity change is -4.65% in assay [1] and 11.2% in assay [2].
The matching figures for `O=S(=O)(c1cnc(Cl)c(Cl)c1)N1CCc2ccccc21`: -11.7% and 14.1%.
On to `C[C@@H]1CN([C@H](C)CO)C(=O)CCCn2nncc2CO[C@@H]1CN(C)C(=O)Nc1ccc(C(F)(F)F)cc1`, for which the activity change in assay [1] is -35.5%; in assay [2] it was -10.2%.
As to `COc1ccc(C2CN=NC23CCc2ccccc2C3=O)cc1` (centres undefined), in assay [1], the activity change was -23.6%.
With `O=S1(=O)N[C@H](Cc2ccccc2)COc2cccc(N3CCC[C@H]3CO)c21`, the values for the activity change in assay [1] and in assay [2] were -63.2% and -34.9%, respectively.
The matching figures for `O=S1(=O)N[C@@H](Cc2ccccc2)COc2cc(N3CCC[C@H]3CO)ccc21`: 9.16% and 59.2%.
The corresponding values for `C(=C/c1nccc2c1[nH]c1ccccc12)/c1ccc2c(c1)OCO2` are 0.824% and -25.6%.
The matching figures for `N#Cc1cccc(-c2ccc3c(c2)[C@H]2[C@H](CCN2C(=O)c2ccccc2F)[C@H](CO)N3)c1`: -37.6% and -10.3%.
For the compound `C[C@H]1CCCCO[C@H](CN(C)C)[C@@H](C)CN([C@@H](C)CO)C(=O)c2cc(NC(=O)Nc3cccc4ccccc34)ccc2O1`, the activity change in assay [1] was -16.9%.
Turning to `CC(=O)NCCOc1nc(N2CCCCC2)nc(N2CCCCC2)n1`, the results for the activity change in assay [1] and in assay [2] were -24.8% and 18.6%, respectively.
As to `COC(=O)c1cc(C(=O)c2c(C)cc3ccccn23)cc([N+](=O)[O-])c1`, the activity change in assay [1] is -3.82%; in assay [2], -1.14%.
As for `CC(C)(C)C1CCC(C(=O)OCC(=O)N2CCN(C(=O)c3ccco3)CC2)CC1` (centres undefined), the activity change in assay [1] was -11.6%; in assay [2], 15.5%.
Take `O=C(NCc1ccccc1)c1nc(S(=O)(=O)Cc2ccccc2)ncc1Cl`: the activity change was -19.7% in assay [1] and 16.6% in assay [2].
Take `CCOC(=O)c1c(CS(=O)(=O)c2ccccc2)n(C)c2cc(Br)c(O)cc12`: in assay [1], the activity change is -45.9%.
Regarding `O=C(Cc1cccnc1)N1CC(=O)N2[C@H](C1)[C@@H](c1ccc(C3=CCCCC3)cc1)[C@@H]2CO`, the results for the activity change in assay [1] and in assay [2] were -23.1% and 1.04%, respectively.
The corresponding values for `C[C@@H]1CN([C@H](C)CO)C(=O)c2cccc(NC(=O)Nc3ccc4c(c3)OCO4)c2O[C@@H]1CN(C)C(=O)Nc1ccc2c(c1)OCO2` are -19.7% and 27.7%.
For `CN1CCN(C(=O)C[C@H]2CC[C@@H]3[C@H](COC[C@@H](O)CN3C(=O)Nc3ccc(Cl)cc3)O2)CC1`, the values for the activity change in assay [1] and in assay [2] were -59.4% and 81.7%, respectively.
For the compound `COCC#Cc1ccc2c(c1)O[C@H](CN(C)C(=O)c1ccccc1)[C@@H](C)CN([C@H](C)CO)S2(=O)=O`, the activity change in assay [1] was -23.5%; in assay [2] it was -15.2%.
With `COc1ccc(CN(C)C(=O)COC(=O)c2c(-c3ccccc3Cl)noc2C)cc1`, the figures for the activity change in assay [1] and in assay [2] were -69.2% and -8.41%, respectively.
The corresponding values for `O=S(=O)(c1ccccc1)N1C[C@@H]2[C@H](c3ccccc31)[C@H](CO)N2Cc1ccccc1` are -75.3% and 45.9%.
With `O=C(Nc1cccc(-c2cn3ccccc3n2)c1)c1ccccc1`, the activity change in assay [1] is -29.1%; in assay [2], -35.9%.
`CC(=O)Nc1ccc(-c2ccnc3c2CC(C)(C(=O)Nc2ccc4c(c2)OCO4)O3)cc1` (centres undefined): in assay [1], the activity change is -26.6%.
Consider `Fc1ccc(-c2nnc(-c3ccc4ccccc4c3)o2)cc1`, for which the activity change in assay [1] is -1.23%; in assay [2], -7.27%.
For the compound `O=[N+]([O-])c1ccc2c(c1)S(=O)c1ccccc1-2` (centres undefined), the activity change was -21% in assay [1] and 20.9% in assay [2].
In the case of `COc1cccc(NC(=O)C(c2ccccc2)N2CCN(c3ccccn3)CC2)c1` (centres undefined), the activity change in assay [1] is -9.98%.
Take `[O-][n+]1ccccc1/C=C/c1ccccc1`: the activity change in assay [1] is -5.49%; in assay [2] it was -13%.
For the compound `COc1ccc(Cc2nnc(Nc3ccc(C)cc3)o2)cc1OC`, the activity change in assay [1] is -9.42%; in assay [2], 35.4%.
The matching figures for `O=C(Nc1nc(-c2ccc3ccccc3c2)cs1)C1CCN(S(=O)(=O)c2cccs2)CC1`: 4.53% and 34.8%.
The matching figures for `O=C(Nc1ccc(F)c(Cl)c1)C1CC2CCC1C2` (centres undefined): -58.8% and -2.09%.
On to `O=C(Nc1ccccc1)N1CCCCN2[C@@H](CO)[C@H](c3ccc(Br)cc3)[C@@H]2C1`, for which the activity change is -2.49% in assay [1] and -0.808% in assay [2].
The corresponding values for `C/C=C/c1ccc2c(c1)[C@@H]1[C@@H](CCN1S(=O)(=O)c1ccccc1OC)[C@H](CO)N2C` are -49.2% and -37.9%.
With `O=C(CCNC(=O)c1ccco1)Nc1cccc(Br)c1`, the activity change in assay [1] is -27.7%.
Regarding `Fc1cccc(CCN2C(=S)NC[C@@H]2CC2CCCCC2)c1`, the activity change in assay [2] is -21.7%.
For the compound `CCOc1ccc(OCC)c(NC(=O)CSc2nc3c(c(=O)n(C)c(=O)n3C)n2C(C)C)c1`, the activity change was -46.3% in assay [1] and -2.93% in assay [2].
The corresponding values for `O=C(O)CSc1nnc(-c2ccc(Cl)cc2Cl)n1-c1ccc(Br)cc1` are -32.7% and -24.8%.
For `C=CCN(CC(O)c1cccc([N+](=O)[O-])c1)C(C)CCc1ccccc1` (centres undefined), the activity change in assay [1] is -83.4%; in assay [2], 7.02%.
The corresponding values for `Cc1ccc(NC(=O)c2ccc([N+](=O)[O-])o2)c(C)c1` are -11.1% and -22.8%.
As to `CN(CC(=O)Nc1ccc(S(=O)(=O)N2CCCC2)cc1)CC(=O)Nc1ccc(F)c(F)c1F`, the activity change in assay [2] was -0.652%.
For `COc1ccc(Cl)cc1C(=O)OCC(=O)c1ccc[nH]1`, the activity change in assay [1] is -8.22%; in assay [2], 22.3%.
Consider `Nc1ncncc1-c1ccc(Cl)cc1`, for which the values for the activity change in assay [1] and in assay [2] were -23.8% and -17.5%, respectively.

The values are drawn from PubChem BioAssay AID977622 (Broad Institute, 2014).
